Results published in PubChem BioAssay AID2685 (National Center for Advancing Translational Sciences (NCATS), 2010).
This is one part of the list. The main result of the screen is listed elsewhere. These columns were measured beside it and carry no call. The list favours compounds with an active or inconclusive main result. Potencies come from curve fits of mixed quality, noted in brackets.

Assay: qHTS Assay for Lipid Storage Modulators in Drosophila S3 Cells;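 on cell number change: cells counted by Cell Tracker Red CMTPX staining in the red channel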
Conditions: BODIPY lipid droplet fluorescence, 18-24 h; for cell number change: measured here: cell count max response, cells fed with added oleic acid
In short: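 Drosophila S3 cells got compounds at several concentrations plus oleic acid (400 uM solution). Laser-scanning cytometry with 488 nm excitation read lipid droplets at 500-530 nm and cells at 575-640 nm. Percent activity was relative to 20 uM Triacsin C.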

[1] = measured here: lipid fluorescence (Fed channel) AC50, cells fed with added oleic acid
[2] = measured here: cell number channel AC50, cells fed with added oleic acid

Question: Which results are given for `CC(=O)Nc1ccc(C(=O)OCC(=O)N2CCCC2)cc1`?
Answer: cell number change: 20.7%; AC50 [1]: 7.31 µM [rising, partial curve]

Question: Which cell number change does the source give for `CC1CC(C)(C)NC(=S)N1CC(=O)NCc1ccccc1Cl` (stereo not given) here?
Answer: -8.03%

Question: And the AC50 [1]?
Answer: 9.2 µM [falling, partial curve, poor fit]

Question: With `COc1ccc(CNC(=O)C(C)c2ccc([N+](=O)[O-])cc2)cc1` (stereo not given) as the compound, how does the cell number change read?
Answer: -9.18%

Question: Which cell number change does the source give for `c1coc(C2Nc3ccccc3-c3nc4ccccc4n32)c1` (stereo not given) here?
Answer: 12.8%

Question: And the AC50 [2]?
Answer: 0.461 µM [rising, full curve, poor fit]

Question: And the AC50 [1]?
Answer: 0.92 µM [rising, partial curve]

Question: Which cell number change does the source give for `COc1cc(/C=C/C(=O)OCC(=O)Nc2c(C)n(C)n(-c3ccccc3)c2=O)cc(OC)c1OC` here?
Answer: 30.4%

Question: And the AC50 [2]?
Answer: 29.1 µM [rising, single point]

Question: And the AC50 [1]?
Answer: 18.4 µM [falling, single point]

Question: With `Cn1c(=O)c([N+](=O)[O-])c(-n2ccnc2)c2ccccc21` as the compound, how does the cell number change read?
Answer: -71.4%

Question: And the AC50 [2]?
Answer: 4.61 µM [falling, full curve]

Question: What about the AC50 [1] of the same compound?
Answer: 4.61 µM [falling, full curve]

Question: Which results are given for `COc1cc(OC)cc(C(=O)NC2CC3CCC(C2)N3Cc2ccco2)c1` (stereo not given)?
Answer: cell number change: -0.17%; AC50 [2]: 3.26 µM [falling, single point]

Question: Which results are given for `CCOC(=O)C(C)n1cnc2scc(-c3ccc(C)cc3)c2c1=O` (stereo not given)?
Answer: cell number change: -20.9%; AC50 [1]: 29.1 µM [falling, single point]

Question: Which results are given for `Cc1onc(C(=O)N2CCN(c3ccccc3F)CC2)c1-c1ccccc1Cl`?
Answer: cell number change: 22.6%; AC50 [2]: 0.00651 µM [rising, full curve, poor fit]; AC50 [1]: 0.58 µM [rising, full curve]

Question: For `CC(=O)c1ccc(S(=O)(=O)N2CCN(S(=O)(=O)c3ccccc3C(F)(F)F)CC2)cc1`, which cell number change is on record?
Answer: 20.7%

Question: And the AC50 [1]?
Answer: 23.1 µM [rising, single point]

Question: For `O=C(CN1CCCCC1)Nc1scc2c1c(=O)oc1ccccc12`, which cell number change is on record?
Answer: -4.36%

Question: What about the AC50 [1] of the same compound?
Answer: 0.0411 µM [rising, partial curve, poor fit]

Question: Which cell number change does the source give for `COc1cc(NC(=S)NC2CC(C)(C)NC(C)(C)C2)c(OC)cc1Cl` here?
Answer: 1.81%

Question: For `NC(=O)NCCCC(=O)OCC(=O)c1ccc2ccccc2c1`, which cell number change is on record?
Answer: -8.95%

Question: What about the AC50 [1] of the same compound?
Answer: 2.91 µM [rising, single point]

Question: Which results are given for `N#CC1=C(Nc2ccccc2)SC=C(c2ccc(F)cc2)N=C1N1CCOCC1`?
Answer: cell number change: 6.42%; AC50 [1]: 0.00651 µM [falling, full curve, poor fit]

Question: With `COc1cccc(Nc2nc(-c3sc(NC(=O)c4ccco4)nc3C)cs2)c1` as the compound, how does the cell number change read?
Answer: -39.9%

Question: And the AC50 [2]?
Answer: 29.1 µM [falling, single point]

Question: What about the AC50 [1] of the same compound?
Answer: 23.1 µM [falling, partial curve, poor fit]

Question: With `COc1ccc(Cl)cc1N(C(=O)c1ccco1)C(C(=O)NC1CCCC1)c1ccncc1` (stereo not given) as the compound, how does the cell number change read?
Answer: 2.56%

Question: What about the AC50 [1] of the same compound?
Answer: 5.17 µM [falling, single point]

Question: For `O=C(Cc1csc(N2CCOCC2)n1)N/N=C/c1ccc(Cl)cc1Cl`, which AC50 [2] is on record?
Answer: 0.651 µM [rising, single point]

Question: And the AC50 [1]?
Answer: 23.1 µM [rising, partial curve]

Question: With `CCN(CC)CCN(C(=O)c1c(F)cccc1F)c1nc2cc(C)cc(C)c2s1` as the compound, how does the cell number change read?
Answer: -38.3%

Question: And the AC50 [2]?
Answer: 29.1 µM [falling, single point]

Question: And the AC50 [1]?
Answer: 23.1 µM [falling, single point]

Question: What does the source list for `COc1cc2c(cc1NC(=O)CN1CCN(S(=O)(=O)c3ccccc3F)CC1)oc1ccccc12`?
Answer: cell number change: 14.3%; AC50 [1]: 29.1 µM [falling, single point]

Question: With `CC1=C/C(=N\N=C2\NC(=O)C(CC(=O)Nc3ccccc3)S2)CC(C)(C)C1` (stereo not given) as the compound, how does the cell number change read?
Answer: -2.76%

Question: For `COc1ccccc1C(=O)NNC(=O)Cc1ccccc1`, which cell number change is on record?
Answer: 7.62%

Question: For `Cc1ccc(NC(=O)C/C(N)=N/OC(=O)Nc2cccc(Cl)c2)cc1`, which cell number change is on record?
Answer: -2.59%

Question: What about the AC50 [1] of the same compound?
Answer: 0.00517 µM [falling, full curve, poor fit]

Question: Which cell number change does the source give for `COc1cc(/C=C2/SC(=O)N(Cc3ccccc3)C2=O)ccc1OCc1ccncc1` here?
Answer: 33.5%

Question: What about the AC50 [2] of the same compound?
Answer: 2.91 µM [rising, full curve]

Question: And the AC50 [1]?
Answer: 11.6 µM [rising, partial curve]

Question: Which cell number change does the source give for `CCO/C=C1\C(=O)N(c2ccc(OCC)cc2)C(=O)c2ccccc21` here?
Answer: -2.84%

Question: For `CCCc1cc(=O)n2[nH]c(-c3cc(OC)c(OC)c(OC)c3)nc2n1`, which AC50 [2] is on record?
Answer: 6.51 µM [falling, single point]

Question: With `CCOc1ccc(CNC(=O)CCCn2ccc3cc(S(=O)(=O)N4CCCC4)ccc32)cc1` as the compound, how does the AC50 [1] read?
Answer: 29.1 µM [falling, single point]

Question: Which AC50 [2] does the source give for `O=C1C(=O)N(CCS(=O)(=O)c2ccccc2)c2ccccc21` here?
Answer: 0.651 µM [falling, single point]

Question: Which results are given for `CCN1C(=O)[C@H]2[C@@H](c3ccc(OC)cc3)N3C(=O)CN(CCOC)C(=O)[C@@]3(Cc3ccccc3)[C@H]2C1=O`?
Answer: cell number change: 27.5%; AC50 [1]: 29.1 µM [rising, single point]

Question: Which results are given for `COc1ccc2c(c1)OC[C@H]1[C@H]2N2C(=O)c3cc(OC)ccc3NC(=O)[C@@]2(C)[C@H]1c1ccccc1`?
Answer: cell number change: -5.08%; AC50 [2]: 0.82 µM [falling, single point]; AC50 [1]: 0.82 µM [falling, full curve, poor fit]

Question: Which cell number change does the source give for `O=C(COC(=O)c1cccc(NS(=O)(=O)c2ccc(F)c(F)c2)c1)NC(=O)NC1CCCCC1` here?
Answer: -66.7%

Question: What about the AC50 [2] of the same compound?
Answer: 18.4 µM [falling, partial curve, poor fit]

Question: With `O=C(NCc1ccc2c(c1)OCO2)c1nn(-c2ccccc2)c(=O)c2ccccc12` as the compound, how does the cell number change read?
Answer: 18.5%

Question: And the AC50 [2]?
Answer: 0.184 µM [rising, full curve]

Question: And the AC50 [1]?
Answer: 0.13 µM [rising, full curve, poor fit]

Question: With `O=C(N/N=C/C=C/c1ccccc1)c1cc(C2CC2)[nH]n1` as the compound, how does the cell number change read?
Answer: 6.25%

Question: Which cell number change does the source give for `COc1ccc(/C=C2\CCCc3c2nc2ccc(C)cc2c3C(=O)O)cc1O` here?
Answer: 24%

Question: What about the AC50 [2] of the same compound?
Answer: 0.13 µM [falling, full curve, poor fit]

Question: For `COc1cccc(/C=N/NC(=O)c2cnccn2)c1O`, which cell number change is on record?
Answer: -14.6%

Question: With `CCNc1nc(CC)nc2c1oc1ccccc12` as the compound, how does the cell number change read?
Answer: 11.3%

Question: What does the source list for `CCN(c1ccc(C)c(C)c1)S(=O)(=O)c1c(C)[nH]c(=O)[nH]c1=O`?
Answer: cell number change: -10.4%; AC50 [1]: 0.259 µM [falling, full curve, poor fit]
